Structures were worked out from names or drawings and are uncertain.
Biological target: NLRP3 (Homo sapiens, UniProt Q96P20)
Test: IL-1β production in PMA-differentiated THP-1 cells stimulated with gramicidin (hTHP-1 assay)
Conditions: read-out: NLRP3 Antagonist, human THP1 NLRP3, IL-1b, Normalized: GeoMean IC50; hTHP-1 assay containing 2% fetal bovine serum; average IC50, class symbols

Chains of the proteins cited; added tags and fusions are not shown.
UniProt Q96P20, whole entry: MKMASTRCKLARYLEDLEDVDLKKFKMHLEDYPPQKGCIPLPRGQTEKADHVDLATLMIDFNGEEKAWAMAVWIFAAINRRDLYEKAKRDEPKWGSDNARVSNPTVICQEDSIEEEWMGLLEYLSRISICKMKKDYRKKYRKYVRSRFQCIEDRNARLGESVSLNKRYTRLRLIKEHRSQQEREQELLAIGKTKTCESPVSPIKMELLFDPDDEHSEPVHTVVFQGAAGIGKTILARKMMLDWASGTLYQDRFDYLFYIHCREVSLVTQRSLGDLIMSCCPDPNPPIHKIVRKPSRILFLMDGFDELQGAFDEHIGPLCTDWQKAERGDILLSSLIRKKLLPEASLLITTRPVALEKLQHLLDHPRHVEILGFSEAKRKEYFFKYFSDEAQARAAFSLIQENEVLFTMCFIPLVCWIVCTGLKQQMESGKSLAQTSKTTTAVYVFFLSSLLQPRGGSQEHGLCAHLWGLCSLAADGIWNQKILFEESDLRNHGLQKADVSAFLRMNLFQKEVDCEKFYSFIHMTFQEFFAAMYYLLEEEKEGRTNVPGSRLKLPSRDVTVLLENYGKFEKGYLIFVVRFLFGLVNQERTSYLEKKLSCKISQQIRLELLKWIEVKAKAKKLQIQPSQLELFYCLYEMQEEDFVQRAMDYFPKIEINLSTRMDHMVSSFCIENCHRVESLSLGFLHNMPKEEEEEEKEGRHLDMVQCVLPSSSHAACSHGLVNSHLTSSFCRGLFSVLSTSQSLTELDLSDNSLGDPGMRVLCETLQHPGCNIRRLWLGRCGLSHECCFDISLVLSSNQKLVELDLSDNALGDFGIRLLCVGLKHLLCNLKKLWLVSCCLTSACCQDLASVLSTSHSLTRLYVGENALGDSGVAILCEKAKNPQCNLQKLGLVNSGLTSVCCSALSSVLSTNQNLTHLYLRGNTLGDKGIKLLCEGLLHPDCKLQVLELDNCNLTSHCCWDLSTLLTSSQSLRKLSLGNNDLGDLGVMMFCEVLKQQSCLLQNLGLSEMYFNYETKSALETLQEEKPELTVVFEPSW

Cc1cccc(-c2cc(C(C)C)c(CC(=O)NS(=O)(=O)c3ccc(CN(C)C)cc3)c(C(C)C)c2)c1
IC50: 1 to 5 µM
